# Patent US20140135474A1 (PROTELICA, published 2014)
# Changes are numbered by the printed parent chain. These are yes or no findings as the source states them, for the method shown. Some results given as binding are weak or reduced against the parent protein; the word gives no strength.
# B1: R1 D4 anti-VEGF (designed binder)
# chain: NVSPPRRARVTDATETTITIPWEVAGGPIISFQVDAVPANGQTPIQRTITPDATGYTITGLQPGTDYKIYLYTLNDNARSSPVVIDAST
# notes: 14FN3 variant; on phage in phage ELISA, soluble His-tagged protein in Octet
# B2: R1 F1 anti-VEGF (designed binder)
# chain: B1 chain with E23A, V24L, A53I, T54R
# Columns and labels:
# [1] = biological target: T1, VEGF (UniProt P15692-9 27-147, limits assumed); test: phage ELISA
# T1 construct: Only the selection names the 121 isoform; also called VEGF(121)
# T1 sequence (looked up): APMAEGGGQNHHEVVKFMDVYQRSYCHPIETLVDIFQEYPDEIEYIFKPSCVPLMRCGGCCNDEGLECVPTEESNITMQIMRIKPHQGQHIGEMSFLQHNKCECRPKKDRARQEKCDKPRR
# [2] = biological target: T1, VEGF; test: Octet biolayer interferometry, soluble R1D4 on VEGF
# [3] = biological target: T1, VEGF; test: phage ELISA (OD450); wells with VEGF, TNF alfa or 2%MPBS only
Binder,binding [1],binding [2],binding [3]
B1,binds,binds,binds
B2,binds,–,binds
